Earlier results as cited in patent publication US20180217163A1, “TREATMENT OF NEURODEGENERATIVE CONDITIONS USING PKC ACTIVATORS AFTER DETERMINING THE PRESENCE OF THE APOE4 ALLELE” (priority 2015, published 2018).
At least one structure is not confirmed: it was looked up by name or label, or the drawing left a doubt.

Legend:
PKC = conditions: K562 cells; cited from earlier work
[1] = test system: cyclin dependent kinase 2 (Cdk2); conditions: at 5 ng/ml; cited from earlier work

C=C(C)[C@@]12C[C@@H](COC(=O)c3ccccc3)[C@@]34OC5(O[C@@H]1[C@@H]3[C@@H]1O[C@]1(CO)[C@@H](O)[C@@]1(O)[C@H]4[C@H]([C@H](C)[C@@H]1OC(=O)c1ccccc1)[C@H](C)CCCCCC[C@H]5O)O2 [Gnidimacrin]
concentration acting as PKC activator (PKC): 0.3 nM
inhibition of Cdk2 [1]: 100%
